Measurements as given in US12083144B2, “Dosage form for treating severe asthma” (University of Pittsburgh—Of the Commonwealth System of …, priority 2017, dated 2024).
For at least one compound, name, drawing or mass did not settle the structure.

What was measured:
[1] = tested on: mice subjected to model of severe asthma (HDM + c-di-GMP); assay: BAL eosinophilia in murine severe asthma model; type: in vivo, mouse; settings: full 28-day severe asthma model
[2] = tested on: mice subjected to model of severe asthma (HDM + c-di-GMP); assay: Airway hyperresponsiveness (Rn) in murine severe asthma model; type: in vivo, mouse; settings: full 28-day severe asthma model, methacholine challenge

C[C@@H]1C[C@H]2[C@@H]3CCC4=CC(=O)C=C[C@]4(C)[C@@]3(F)[C@@H](O)C[C@]2(C)[C@@]1(O)C(=O)CO [dexamethasone]
airway (BAL) eosinophilia ([1]; IRF5−/− mice): blunted the increase in airway eosinophilia
airway (BAL) eosinophilia ([1]; WT mice): blunted the increase in airway eosinophilia
development of AHR (airway resistance, Rn) under corticosteroid treatment ([2]; IRF5−/− mice): completely resistant
development of AHR (airway resistance, Rn) under corticosteroid treatment ([2]; WT C57 mice): completely resistant
development of AHR (airway resistance, Rn) under corticosteroid treatment ([2]; WT C57 mice, listed as CS): failed to reduce AHR
